This note sets out measurements from article PMC3163269.

Experiment [1] addresses Thermotoga maritima MreB, wild-type, untagged (pFE349) (Thermotoga maritima) (UniProt Q9WZ57). Briefly: negative stain electron microscopy with single-particle analysis; TmMreB 0.2 mg/ml in a droplet on a lipid monolayer (E. coli polar lipid extract) on a carbon-coated nickel grid; polymerization buffer 100 mM Tris pH 7.4, 100 mM NaCl, 3 mM MgCl2, 1.5 mM AMP-PNP; 2% uranyl acetate; both purified.

Experiment [2] shares this target. Briefly: electron cryotomography of protein on lipid vesicles; vesicles (E. coli total lipid extract) mixed with 1 mg/ml MreB in polymerization buffer with AMP-PNP, frozen immediately; both purified.
Experiment [3] has as its target Thermotoga maritima MreB L93A/F94A (Thermotoga maritima) (UniProt Q9WZ57). Briefly: polymerization assay analyzed by negative stain electron microscopy; data not shown; both purified.

Results are given in words; binding and its absence hold for the method and conditions named. Some results given as binding are weak or reduced against the parent protein; the word gives no strength. For part of these data: Tags and fused reporters may be left off the sequences shown.

B1: Thermotoga maritima MreB, wild-type, untagged (pFE349) (protein, UniProt Q9WZ57 1-336)
chain: MLRKDIGIDLGTANTLVFLRGKGIVVNEPSVIAIDSTTGEILKVGLEAKNMIGKTPATIKAIRPMRDGVIADYTVALVMLRYFINKAKGGMNLFKPRVVIGVPIGITDVERRAILDAGLEAGASKVFLIEEPMAAAIGSNLNVEEPSGNMVVDIGGGTTEVAVISLGSIVTWESIRIAGDEMDEAIVQYVRETYRVAIGERTAERVKIEIGNVFPSKENDELETTVSGIDLSTGLPRKLTLKGGEVREALRSVVVAIVESVRTTLEKTPPELVSDIIERGIFLTGGGSLLRGLDTLLQKETGISVIRSEEPLTAVAKGAGMVLDKVNILKKLQGAG
In the case of B1, the binding entry in experiment [1] and in experiment [2] was “binds” each time.

B2: Thermotoga maritima MreB L93A/F94A (protein, UniProt Q9WZ57 1-336)
chain: MLRKDIGIDLGTANTLVFLRGKGIVVNEPSVIAIDSTTGEILKVGLEAKNMIGKTPATIKAIRPMRDGVIADYTVALVMLRYFINKAKGGMNAAKPRVVIGVPIGITDVERRAILDAGLEAGASKVFLIEEPMAAAIGSNLNVEEPSGNMVVDIGGGTTEVAVISLGSIVTWESIRIAGDEMDEAIVQYVRETYRVAIGERTAERVKIEIGNVFPSKENDELETTVSGIDLSTGLPRKLTLKGGEVREALRSVVVAIVESVRTTLEKTPPELVSDIIERGIFLTGGGSLLRGLDTLLQKETGISVIRSEEPLTAVAKGAGMVLDKVNILKKLQGAG
Take B2: the binding entry in experiment [3] is “binds”.
